# Patent US20160347807A1, “TARGETING P53 AND ITS DNA-BINDING DOMAIN” (UNIVERSITY OF UTAH RESEARCH DOUNDATION, priority 2014, published 2016)
# Test system: 1471.1 cells
# Assay: Mitochondrial colocalization of EGFP constructs with MitoTracker Red (PCC)
# Type: cell-based, murine
# Details: PCC of 0.6 or greater defines colocalization
row,Substance,"colocalization with mitochondria (Pearson's correlation coefficient, PCC)"
1,p53-BakMTS: MTS from Bak fused to the C-terminus of EGFP-p53,0.75
2,p53-XL: full length p53 with EGFP on the amino terminus and the MTS from Bcl-XL (XL) on the C-terminus,directs p53-XL to the mitochondria
